Measurements as given in patent publication US20230265211A1 (published 2023).
Results are given in words; binding and its absence hold for the method and conditions named. Some binding calls cover weakened binding; strength is not graded here.

B1: PS003 (VHH)
VHH: QVQLQESGGGLVQAGGSLRLSCAASGRTFSSYAMGWVRQAPGKEREFVAAISYNGGRTNYADSVKGRFTISRDNAKNTGYLQMNSLKPEDTAVYYCAANPRMWGSVDFRSWGQGTQVTVSS
notes: Llama VHH selected by phage display on rhPS; Purified form expressed from pET28 in E. coli with N-terminal His6-tag and C-terminal HA-tag; also called PS003 nanobody; monovalent PS003; not shown: N-terminal His6-tag from the pET28 format; C-terminal haemagglutinin (HA)-tag
B2: PS003biv (VHH)
chain: QVQLQESGGGLVQAGGSLRLSCAASGRTFSSYAMGWVRQAPGKEREFVAAISYNGGRTNYADSVKGRFTISRDNAKNTGYLQMNSLKPEDTAVYYCAANPRMWGSVDFRSWGQGTQVTVSSGGGSGGGSGGGSGGGSQVQLQESGGGLVQAGGSLRLSCAASGRTFSSYAMGWVRQAPGKEREFVAAISYNGGRTNYADSVKGRFTISRDNAKNTGYLQMNSLKPEDTAVYYCAANPRMWGSVDFRSWGQGTQVTVSS
notes: also called bivalent PS003; not shown: N-terminal His6-tag from the pET28 format; C-terminal haemagglutinin (HA)-tag

Key:
[1] = molecular target: T1, recombinant form of the PS SHBG-like domain alone (rSHBG) (human) (UniProt P07225); assay: direct ELISA on immobilized rhSHBG (legend of FIG. 4)
T1 sequence (looked up): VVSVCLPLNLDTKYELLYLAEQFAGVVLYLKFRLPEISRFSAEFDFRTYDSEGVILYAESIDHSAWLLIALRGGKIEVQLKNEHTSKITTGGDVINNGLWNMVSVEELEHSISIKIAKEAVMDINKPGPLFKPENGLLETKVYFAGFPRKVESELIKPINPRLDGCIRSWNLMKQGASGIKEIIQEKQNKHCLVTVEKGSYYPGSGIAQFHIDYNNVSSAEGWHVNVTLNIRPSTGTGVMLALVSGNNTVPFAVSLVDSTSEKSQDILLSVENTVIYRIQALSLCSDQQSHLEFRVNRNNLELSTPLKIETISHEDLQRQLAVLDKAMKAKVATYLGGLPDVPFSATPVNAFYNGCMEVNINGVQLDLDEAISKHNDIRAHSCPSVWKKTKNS

[2] = molecular target: T1, recombinant form of the PS SHBG-like domain alone (rSHBG) (human); assay: direct ELISA, 0.5 nM PS003biv on immobilized rSHBG, anti-His6 detection
[3] = molecular target: T1, recombinant form of the PS SHBG-like domain alone (rSHBG) (human); assay: direct ELISA, 0.5 nM PS003biv on immobilized rSHBG (text after legend of FIG. 7)

Row | Binder | binding [1] | binding [2] | binding [3]
1 | B1 | binds |  | 
2 | B2 |  | binds | binds
